In the supplement of paper PMC10849652:
Some of the results follow.

Sequences of proteins named here, by UniProt entry; tags and fusion partners are left off. A change or cut given only in a name is not applied to a line headed by its entry.
UniProt Q9BZQ8: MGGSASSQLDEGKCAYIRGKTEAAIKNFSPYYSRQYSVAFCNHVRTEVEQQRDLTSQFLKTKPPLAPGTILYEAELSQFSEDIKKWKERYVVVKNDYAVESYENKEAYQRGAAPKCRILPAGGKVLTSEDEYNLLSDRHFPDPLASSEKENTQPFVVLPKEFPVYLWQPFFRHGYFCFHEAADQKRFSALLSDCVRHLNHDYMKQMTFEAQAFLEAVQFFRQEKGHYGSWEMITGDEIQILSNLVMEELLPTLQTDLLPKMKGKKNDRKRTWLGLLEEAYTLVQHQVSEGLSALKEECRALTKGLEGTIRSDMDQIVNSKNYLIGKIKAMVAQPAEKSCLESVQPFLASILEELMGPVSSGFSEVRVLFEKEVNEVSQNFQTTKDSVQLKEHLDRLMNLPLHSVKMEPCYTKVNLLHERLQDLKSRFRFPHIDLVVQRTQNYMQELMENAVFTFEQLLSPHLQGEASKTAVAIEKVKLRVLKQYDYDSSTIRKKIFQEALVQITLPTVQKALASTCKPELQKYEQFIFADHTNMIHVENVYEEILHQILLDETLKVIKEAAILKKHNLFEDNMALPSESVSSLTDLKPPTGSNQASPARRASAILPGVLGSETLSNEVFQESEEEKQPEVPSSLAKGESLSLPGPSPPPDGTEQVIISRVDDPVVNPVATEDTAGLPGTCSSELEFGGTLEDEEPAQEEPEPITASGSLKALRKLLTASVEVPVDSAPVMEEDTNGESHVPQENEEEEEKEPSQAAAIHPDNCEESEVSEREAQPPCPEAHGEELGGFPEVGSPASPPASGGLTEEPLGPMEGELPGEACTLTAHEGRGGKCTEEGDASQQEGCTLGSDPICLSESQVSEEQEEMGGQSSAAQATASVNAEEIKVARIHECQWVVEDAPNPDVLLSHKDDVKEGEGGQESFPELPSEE
UniProt P46934: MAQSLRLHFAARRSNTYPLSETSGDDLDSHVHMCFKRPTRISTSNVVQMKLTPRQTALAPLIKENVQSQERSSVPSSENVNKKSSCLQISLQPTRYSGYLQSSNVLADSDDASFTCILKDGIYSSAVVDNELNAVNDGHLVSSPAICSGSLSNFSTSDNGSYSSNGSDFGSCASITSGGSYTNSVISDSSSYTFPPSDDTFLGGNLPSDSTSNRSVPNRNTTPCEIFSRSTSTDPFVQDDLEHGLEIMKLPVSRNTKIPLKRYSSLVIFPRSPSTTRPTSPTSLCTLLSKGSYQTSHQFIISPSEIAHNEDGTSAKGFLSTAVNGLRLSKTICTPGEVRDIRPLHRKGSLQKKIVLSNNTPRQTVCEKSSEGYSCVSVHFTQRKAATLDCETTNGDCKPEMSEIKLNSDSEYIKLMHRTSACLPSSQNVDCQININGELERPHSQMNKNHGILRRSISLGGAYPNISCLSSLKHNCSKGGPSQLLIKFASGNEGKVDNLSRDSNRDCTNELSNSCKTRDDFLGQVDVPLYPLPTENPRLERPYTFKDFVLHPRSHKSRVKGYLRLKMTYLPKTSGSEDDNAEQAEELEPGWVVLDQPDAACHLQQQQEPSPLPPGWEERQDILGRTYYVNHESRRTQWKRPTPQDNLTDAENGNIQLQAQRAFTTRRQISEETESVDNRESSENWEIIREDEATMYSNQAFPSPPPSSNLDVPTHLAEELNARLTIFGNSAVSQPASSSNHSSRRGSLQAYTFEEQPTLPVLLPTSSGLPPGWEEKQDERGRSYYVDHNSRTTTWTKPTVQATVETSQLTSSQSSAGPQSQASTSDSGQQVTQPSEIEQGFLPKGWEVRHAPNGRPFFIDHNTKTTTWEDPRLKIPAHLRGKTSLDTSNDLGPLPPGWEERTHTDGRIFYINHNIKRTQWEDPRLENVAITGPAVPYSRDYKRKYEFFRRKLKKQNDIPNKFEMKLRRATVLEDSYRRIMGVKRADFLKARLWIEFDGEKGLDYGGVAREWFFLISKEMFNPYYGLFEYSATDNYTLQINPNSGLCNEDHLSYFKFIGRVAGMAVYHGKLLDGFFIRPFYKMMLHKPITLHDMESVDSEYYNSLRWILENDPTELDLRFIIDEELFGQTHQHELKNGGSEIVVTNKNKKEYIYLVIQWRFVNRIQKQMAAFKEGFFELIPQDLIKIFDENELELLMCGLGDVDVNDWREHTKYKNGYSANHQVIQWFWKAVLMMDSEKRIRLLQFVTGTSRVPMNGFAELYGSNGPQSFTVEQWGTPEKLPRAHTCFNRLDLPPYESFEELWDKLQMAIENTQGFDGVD
UniProt Q9NXR1: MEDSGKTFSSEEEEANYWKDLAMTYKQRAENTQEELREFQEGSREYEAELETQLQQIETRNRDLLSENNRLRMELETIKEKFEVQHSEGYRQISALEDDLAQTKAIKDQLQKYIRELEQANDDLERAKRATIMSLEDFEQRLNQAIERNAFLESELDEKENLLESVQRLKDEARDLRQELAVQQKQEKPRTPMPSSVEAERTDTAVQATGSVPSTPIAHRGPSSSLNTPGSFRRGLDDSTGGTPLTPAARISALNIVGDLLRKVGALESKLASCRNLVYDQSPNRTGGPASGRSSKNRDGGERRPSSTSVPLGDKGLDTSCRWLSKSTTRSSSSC
UniProt Q9NPE2: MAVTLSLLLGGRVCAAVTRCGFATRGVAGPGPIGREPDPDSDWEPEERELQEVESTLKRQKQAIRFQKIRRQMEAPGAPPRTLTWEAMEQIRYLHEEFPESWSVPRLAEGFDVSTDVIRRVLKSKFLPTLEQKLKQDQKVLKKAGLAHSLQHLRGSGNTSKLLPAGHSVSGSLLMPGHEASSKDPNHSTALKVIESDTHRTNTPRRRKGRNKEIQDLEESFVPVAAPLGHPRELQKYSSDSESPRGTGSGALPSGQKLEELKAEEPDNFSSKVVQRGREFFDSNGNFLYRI
UniProt Q8N183: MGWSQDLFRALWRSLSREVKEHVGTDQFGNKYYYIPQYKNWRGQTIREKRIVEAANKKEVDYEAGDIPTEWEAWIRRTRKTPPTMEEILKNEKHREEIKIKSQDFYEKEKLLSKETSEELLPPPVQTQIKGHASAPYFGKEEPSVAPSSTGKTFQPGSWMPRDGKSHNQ
UniProt Q00653: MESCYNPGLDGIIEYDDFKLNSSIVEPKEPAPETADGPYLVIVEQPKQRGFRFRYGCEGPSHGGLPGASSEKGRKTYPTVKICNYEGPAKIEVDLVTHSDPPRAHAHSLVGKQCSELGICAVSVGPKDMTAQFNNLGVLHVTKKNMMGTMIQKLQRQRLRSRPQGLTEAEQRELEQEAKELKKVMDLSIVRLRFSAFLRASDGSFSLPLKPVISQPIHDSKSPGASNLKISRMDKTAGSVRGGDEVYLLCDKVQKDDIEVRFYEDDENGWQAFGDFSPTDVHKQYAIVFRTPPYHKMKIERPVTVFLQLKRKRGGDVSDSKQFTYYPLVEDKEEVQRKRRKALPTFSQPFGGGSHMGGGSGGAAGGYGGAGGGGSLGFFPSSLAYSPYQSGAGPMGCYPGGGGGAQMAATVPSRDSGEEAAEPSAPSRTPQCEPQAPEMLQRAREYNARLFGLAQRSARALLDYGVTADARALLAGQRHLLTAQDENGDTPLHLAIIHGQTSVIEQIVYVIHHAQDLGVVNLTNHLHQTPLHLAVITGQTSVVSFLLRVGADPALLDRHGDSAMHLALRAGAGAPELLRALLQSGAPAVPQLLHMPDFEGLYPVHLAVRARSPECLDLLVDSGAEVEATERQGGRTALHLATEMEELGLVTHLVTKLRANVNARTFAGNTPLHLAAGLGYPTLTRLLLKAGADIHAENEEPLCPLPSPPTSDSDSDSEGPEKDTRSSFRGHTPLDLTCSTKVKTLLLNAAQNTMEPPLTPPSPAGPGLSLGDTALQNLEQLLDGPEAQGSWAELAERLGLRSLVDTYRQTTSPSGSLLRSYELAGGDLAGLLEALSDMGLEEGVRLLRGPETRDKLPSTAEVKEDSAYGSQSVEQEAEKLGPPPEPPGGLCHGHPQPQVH
UniProt O95169, whole entry, looked up: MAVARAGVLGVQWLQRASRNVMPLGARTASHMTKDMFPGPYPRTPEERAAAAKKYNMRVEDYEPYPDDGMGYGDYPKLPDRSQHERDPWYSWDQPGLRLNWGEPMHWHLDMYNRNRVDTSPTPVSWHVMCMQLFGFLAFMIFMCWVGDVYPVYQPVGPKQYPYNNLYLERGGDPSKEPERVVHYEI
UniProt O75323: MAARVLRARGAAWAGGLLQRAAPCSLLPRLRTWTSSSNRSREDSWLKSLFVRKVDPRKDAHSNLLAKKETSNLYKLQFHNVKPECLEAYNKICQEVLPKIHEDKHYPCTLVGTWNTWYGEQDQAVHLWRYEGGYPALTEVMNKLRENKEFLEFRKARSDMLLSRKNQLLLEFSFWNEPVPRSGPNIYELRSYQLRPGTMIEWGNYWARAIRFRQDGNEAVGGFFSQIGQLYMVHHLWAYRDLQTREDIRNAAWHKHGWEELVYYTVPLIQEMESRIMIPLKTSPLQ
UniProt Q15843, whole entry, looked up: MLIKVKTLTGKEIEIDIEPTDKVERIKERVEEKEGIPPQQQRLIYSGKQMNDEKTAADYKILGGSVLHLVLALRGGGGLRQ
UniProt Q9BU61: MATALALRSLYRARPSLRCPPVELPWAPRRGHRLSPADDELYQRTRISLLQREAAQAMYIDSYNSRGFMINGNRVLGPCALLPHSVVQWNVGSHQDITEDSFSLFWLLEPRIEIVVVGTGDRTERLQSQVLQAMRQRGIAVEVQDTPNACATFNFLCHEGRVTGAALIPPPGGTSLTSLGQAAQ
UniProt P25208: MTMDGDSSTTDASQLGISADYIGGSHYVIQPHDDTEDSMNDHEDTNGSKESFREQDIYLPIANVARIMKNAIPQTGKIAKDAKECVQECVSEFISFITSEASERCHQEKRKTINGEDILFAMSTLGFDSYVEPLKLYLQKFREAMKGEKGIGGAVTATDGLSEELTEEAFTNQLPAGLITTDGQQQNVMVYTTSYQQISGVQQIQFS
UniProt Q9BPW8: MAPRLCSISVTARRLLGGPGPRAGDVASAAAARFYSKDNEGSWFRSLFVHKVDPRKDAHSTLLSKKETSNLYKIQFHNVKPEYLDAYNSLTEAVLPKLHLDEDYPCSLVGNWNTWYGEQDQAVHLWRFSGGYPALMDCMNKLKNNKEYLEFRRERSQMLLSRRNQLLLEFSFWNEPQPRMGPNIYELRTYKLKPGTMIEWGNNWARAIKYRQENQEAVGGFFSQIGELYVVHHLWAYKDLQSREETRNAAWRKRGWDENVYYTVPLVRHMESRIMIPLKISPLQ
UniProt O75306, whole entry, looked up: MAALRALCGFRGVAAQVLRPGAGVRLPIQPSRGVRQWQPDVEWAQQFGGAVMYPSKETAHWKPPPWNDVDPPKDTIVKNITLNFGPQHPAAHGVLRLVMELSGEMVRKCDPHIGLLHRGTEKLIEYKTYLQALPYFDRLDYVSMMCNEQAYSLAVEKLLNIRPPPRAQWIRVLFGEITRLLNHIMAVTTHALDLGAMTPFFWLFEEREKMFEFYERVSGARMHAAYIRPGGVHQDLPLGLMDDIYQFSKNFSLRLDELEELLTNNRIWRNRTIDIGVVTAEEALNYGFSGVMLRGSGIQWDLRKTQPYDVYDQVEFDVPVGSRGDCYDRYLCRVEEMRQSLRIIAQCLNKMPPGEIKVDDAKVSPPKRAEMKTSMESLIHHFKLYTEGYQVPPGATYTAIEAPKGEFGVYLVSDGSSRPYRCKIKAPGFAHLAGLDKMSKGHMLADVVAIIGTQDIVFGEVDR
UniProt Q9UHB4: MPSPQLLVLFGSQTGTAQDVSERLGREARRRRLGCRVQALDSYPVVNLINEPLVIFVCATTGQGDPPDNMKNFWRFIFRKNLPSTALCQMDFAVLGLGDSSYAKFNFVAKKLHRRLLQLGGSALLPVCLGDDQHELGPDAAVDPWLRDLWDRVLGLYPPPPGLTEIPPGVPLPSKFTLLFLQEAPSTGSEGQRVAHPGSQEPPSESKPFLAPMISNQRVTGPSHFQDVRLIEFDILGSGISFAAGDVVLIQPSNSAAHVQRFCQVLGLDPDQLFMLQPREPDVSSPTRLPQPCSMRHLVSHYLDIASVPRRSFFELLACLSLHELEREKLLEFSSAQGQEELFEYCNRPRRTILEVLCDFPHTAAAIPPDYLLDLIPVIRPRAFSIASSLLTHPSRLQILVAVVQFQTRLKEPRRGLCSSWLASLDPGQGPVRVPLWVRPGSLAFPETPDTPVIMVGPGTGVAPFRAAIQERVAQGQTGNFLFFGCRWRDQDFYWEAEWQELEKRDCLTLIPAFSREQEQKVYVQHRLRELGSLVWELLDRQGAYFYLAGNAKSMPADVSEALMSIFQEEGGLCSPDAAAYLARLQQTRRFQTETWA
UniProt O43674, whole entry, looked up: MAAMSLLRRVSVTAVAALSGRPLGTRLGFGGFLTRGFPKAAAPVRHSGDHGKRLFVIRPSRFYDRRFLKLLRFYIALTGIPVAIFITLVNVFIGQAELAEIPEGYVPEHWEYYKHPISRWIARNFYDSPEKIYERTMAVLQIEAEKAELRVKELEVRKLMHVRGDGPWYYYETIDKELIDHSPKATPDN

Key:
Assay in all cases: log2 fold change, soluble protein after heating vs DMSO (PISA); higher = thermal stabilisation; K562 lysate, 10 uM; active = over 0.2 and 3.5 SD of the protein, either way, in both replicates (recomputed)
erlotinib = compound: C#Cc1cccc(Nc2ncnc3cc(OCCOC)c(OCCOC)cc23)c1 [erlotinib]
Outline: (§1)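 K562 pellets were dounce-homogenised in PBS pH 7.4 with 1 mM MgCl2, and the crude extract at 1 mg/mL protein was treated with 10 μM compound for 30 min. Aliquots were heated for 3 min across 48°C-58°C, pooled, and brought to 0.5% NP-40 at 4°C; soluble protein was the supernatant after 21,000xg for 90 min. Soluble protein was quantified by TMTpro 16plex LC-MS/MS with channel sums equalised, and reported as log2 fold change in thermal stability against DMSO controls, with values from duplicates.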

[1] = compound: C/C(=N\NC(=O)C1=CC(=CC=C1)S(=O)(=O)N2CCOCC2)/C3=C(C=CC(=C3)Cl)O
Outline: as §1

[2] = compound: C1=CC(=CC=C1C2=NC3=C(N2)C=C(C=C3)C(=O)N)OC4=CC=C(C=C4)Cl
Outline: as §1

[3] = compound: C1=CC2=C(C=CC(=C2)/C=C\3/C(=O)NC(=NCC4=CC=CS4)S3)N=C1
Outline: as §1

[4] = compound: C1=CC2=NC=CN=C2C=C1/C=C/3\C(=O)NC(=O)S3
Outline: as §1

[5] = compound: C1=CC=C(C=C1)C2=NC(=C(N2)C3=CC=NC=C3)C4=CC(=C(C=C4)Cl)O
Outline: as §1

[6] = compound: C1=CC=C2C(=C1)C3=NNC4=CC=CC(=C43)C2=O
Outline: as §1

[7] = compound: C1CCN(C1)C(=O)NC2=CC=CC(=C2)NC3=NC=C(C(=N3)NCCC4=CN=CN4)Br
Outline: as §1

[8] = compound: C1CN(CCC1(CC2=CC=C(C=C2)Cl)N)C3=NC=NC4=C3C=CN4
Outline: as §1

IRAK-1-4 Inhibitor I = compound: C1COCCN1CCN2C3=CC=CC=C3N=C2NC(=O)C4=CC(=CC=C4)[N+](=O)[O-] [IRAK-1-4 Inhibitor I]
Outline: as §1

ibrutinib = compound: C=CC(=O)N1CCC[C@@H](n2nc(-c3ccc(Oc4ccccc4)cc3)c3c(N)ncnc32)C1 [ibrutinib]
Outline: as §1

[9] = compound: CC(=O)c1cnc2ccc(-c3cc(Cl)c(O)c(Cl)c3)nc2c1N[C@H]1CC[C@H](CN(C)C)CC1
Outline: as §1

ralimetinib = compound: CC(C)(C)Cn1c(N)nc2ccc(-c3[nH]c(C(C)(C)C)nc3-c3ccc(F)cc3)nc21 [ralimetinib]
Outline: as §1

[10] = compound: CC(C)(O)CC(=O)NCCn1ccc2ncnc(Nc3ccc(Oc4cccc(C(F)(F)F)c4)c(Cl)c3)c21
Outline: as §1

[11] = compound: CC(C)C1=C2N=C(C=C(N2N=C1)NCC3=CC=CC=C3)NCCCCCCN
Outline: as §1

[12] = compound: CC1=C(C(CC(=O)N1)C2=CC=C(C=C2)C(F)(F)F)C(=O)NC3=C(C=C4C(=C3)C=NN4)F
Outline: as §1

[13] = compound: CC1=C(C2=C(C=C1)C(=O)C3=CC=CC=C3N2CCCN)C
Outline: as §1

[14] = compound: CC1=C(C=C(C=C1)NC(=O)C2=CC(=CC=C2)C(C)(C)C#N)NC3=CC4=C(C=C3)N=CN(C4=O)C
Outline: as §1

[15] = compound: CC1=C(C=C(C=C1)NC(=O)C2=CC(=CC=C2)N(C)C)NC(=O)C3=CC=C(C=C3)O
Outline: as §1

[16] = compound: CC1=CC=C(C=C1)SC2=C3C=C(SC3=CN=C2)C(=O)N
Outline: as §1

Measured: log2 fold change

NIBAN1 (UniProt Q9BZQ8)
inactive: erlotinib 0.048 | [1] -0.025 | [2] 0.017 | [3] 0.011 | [4] 0.002 | [5] 0.009 | [6] -0.039 | [7] -0.003 | [8] 0.002 | IRAK-1-4 Inhibitor I 0.023 | ibrutinib 0.009 | [9] -0.024 | ralimetinib 0.011 | [10] -0.006 | [11] 0.01 | [12] 0.022 | [13] -0.002 | [14] -0.014 | [15] 0.055 | [16] -0.003

NEDD4 isoform 4 (UniProt P46934)
inactive: erlotinib -0.001 | [1] -0.057 | [2] 0.023 | [3] 0.018 | [4] 0.052 | [5] -0.004 | [6] -0.023 | [7] -0.005 | [8] -0.031 | IRAK-1-4 Inhibitor I -0.007 | ibrutinib -0.008 | [9] 0.015 | ralimetinib 0.001 | [10] -0.019 | [11] -0.045 | [12] -0.002 | [13] 0.011 | [14] -0.014 | [15] -0.012 | [16] 0

NDE1 isoform 1 (UniProt Q9NXR1)
inactive: erlotinib -0.025 | [1] -0.044 | [2] 0.04 | [3] 0.008 | [4] -0.017 | [5] 0.117 | [6] 0.046 | [7] 0.017 | [8] -0.031 | IRAK-1-4 Inhibitor I 0.049 | ibrutinib 0.023 | [9] -0.034 | ralimetinib 0.015 | [10] -0.035 | [11] -0.025 | [12] 0.01 | [13] -0.037 | [14] 0 | [15] -0.051 | [16] -0.037

NGRN (UniProt Q9NPE2)
inactive: erlotinib -0.041 | [1] -0.003 | [2] 0.023 | [3] 0.033 | [4] -0.002 | [5] 0.008 | [6] -0.046 | [7] 0.06 | [8] -0.007 | IRAK-1-4 Inhibitor I -0.005 | ibrutinib 0.001 | [9] 0.013 | ralimetinib 0.022 | [10] 0.002 | [11] 0.059 | [12] 0.046 | [13] 0.022 | [14] -0.007 | [15] -0.001 | [16] -0.069

NDUFAF2 (UniProt Q8N183)
inactive: erlotinib 0.014 | [1] -0.048 | [2] 0 | [3] -0.013 | [4] 0.02 | [5] -0.018 | [6] -0.004 | [7] 0.02 | [8] -0.003 | IRAK-1-4 Inhibitor I -0.039 | ibrutinib -0.006 | [9] -0.004 | ralimetinib -0.021 | [10] 0.035 | [11] 0.051 | [12] 0.036 | [13] -0.01 | [14] 0.033 | [15] 0.001 | [16] -0.021

NFKB2 (UniProt Q00653)
inactive: erlotinib -0.033 | [1] -0.138 | [2] -0.007 | [3] 0.049 | [4] -0.044 | [5] 0.028 | [6] -0.019 | [7] -0.02 | [8] -0.048 | IRAK-1-4 Inhibitor I -0.01 | ibrutinib 0.01 | [9] 0.014 | ralimetinib 0.017 | [10] -0.011 | [11] -0.01 | [12] -0.018 | [13] -0.007 | [14] -0.011 | [15] 0.039 | [16] -0.022

NDUFB8 (UniProt O95169)
inactive: erlotinib 0.047 | [1] 0.02 | [2] -0.072 | [3] -0.001 | [4] 0.132 | [5] -0.022 | [6] 0.076 | [7] 0.009 | [8] 0.217 | IRAK-1-4 Inhibitor I -0.033 | ibrutinib -0.008 | [9] -0.056 | ralimetinib 0.027 | [10] -0.021 | [11] -0.008 | [12] -0.058 | [13] -0.002 | [14] 0.084 | [15] 0 | [16] 0.022

NIPSNAP2 (UniProt O75323)
inactive: erlotinib -0.031 | [1] 0.041 | [2] -0.073 | [3] -0.035 | [4] 0.063 | [5] -0.049 | [6] -0.033 | [7] -0.003 | [8] 0.011 | IRAK-1-4 Inhibitor I -0.025 | ibrutinib -0.013 | [9] -0.011 | ralimetinib 0.069 | [10] 0.027 | [11] 0.064 | [12] -0.006 | [13] -0.021 | [14] -0.007 | [15] 0.054 | [16] 0.02

NEDD8 (UniProt Q15843)
inactive: erlotinib 0.018 | [1] -0.019 | [2] 0 | [3] 0.031 | [4] -0.047 | [5] 0.011 | [6] -0.053 | [7] 0.026 | [8] 0.07 | IRAK-1-4 Inhibitor I 0 | ibrutinib 0.059 | [9] -0.013 | ralimetinib -0.001 | [10] 0 | [11] 0.011 | [12] -0.01 | [13] 0.005 | [14] 0.077 | [15] 0.025 | [16] -0.029

Fetched one by one from the entries so far (two):
NDUFB8 (UniProt O95169)
inactive: erlotinib 0.047 | [1] 0.02 | [2] -0.072 | [3] -0.001 | [4] 0.132 | [5] -0.022 | [6] 0.076 | [7] 0.009 | [8] 0.217 | IRAK-1-4 Inhibitor I -0.033 | ibrutinib -0.008 | [9] -0.056 | ralimetinib 0.027 | [10] -0.021 | [11] -0.008 | [12] -0.058 | [13] -0.002 | [14] 0.084 | [15] 0 | [16] 0.022

NIPSNAP2 (UniProt O75323)
inactive: erlotinib -0.031 | [1] 0.041 | [2] -0.073 | [3] -0.035 | [4] 0.063 | [5] -0.049 | [6] -0.033 | [7] -0.003 | [8] 0.011 | IRAK-1-4 Inhibitor I -0.025 | ibrutinib -0.013 | [9] -0.011 | ralimetinib 0.069 | [10] 0.027 | [11] 0.064 | [12] -0.006 | [13] -0.021 | [14] -0.007 | [15] 0.054 | [16] 0.02

Next records

NDUFAF3 (UniProt Q9BU61)
inactive: erlotinib -0.011 | [1] 0.011 | [2] -0.057 | [3] -0.013 | [4] 0.096 | [5] -0.045 | [6] -0.042 | [7] 0.013 | [8] 0.019 | IRAK-1-4 Inhibitor I 0.003 | ibrutinib -0.007 | [9] -0.005 | ralimetinib 0.048 | [10] -0.015 | [11] -0.074 | [12] -0.014 | [13] 0.024 | [14] 0.041 | [15] -0.045 | [16] 0.007

NFYB (UniProt P25208)
inactive: erlotinib -0.019 | [1] -0.345 | [2] 0.063 | [3] 0.053 | [4] 0 | [5] -0.031 | [6] -0.003 | [7] -0.004 | [8] -0.032 | IRAK-1-4 Inhibitor I -0.069 | ibrutinib -0.12 | [9] -0.009 | ralimetinib -0.084 | [10] -0.105 | [11] -0.02 | [12] 0.018 | [13] -0.024 | [14] -0.004 | [15] 0.027 | [16] -0.037

NIPSNAP1 (UniProt Q9BPW8)
inactive: erlotinib -0.064 | [1] 0.084 | [2] -0.121 | [3] -0.023 | [4] 0.013 | [5] 0.017 | [6] -0.047 | [7] -0.013 | [8] -0.044 | IRAK-1-4 Inhibitor I -0.003 | ibrutinib 0.037 | [9] 0.023 | ralimetinib 0.054 | [10] 0.03 | [11] 0.107 | [12] 0.069 | [13] -0.026 | [14] 0.033 | [15] 0.013 | [16] 0.004

NDUFS2 (UniProt O75306)
inactive: erlotinib -0.003 | [1] 0.036 | [2] -0.07 | [3] 0.008 | [4] 0.048 | [5] -0.004 | [6] 0 | [7] 0.01 | [8] -0.001 | IRAK-1-4 Inhibitor I 0.022 | ibrutinib -0.001 | [9] 0.015 | ralimetinib -0.003 | [10] -0.014 | [11] 0.002 | [12] 0.004 | [13] 0.042 | [14] 0.01 | [15] -0.019 | [16] 0.013

NDOR1 isoform 2 (UniProt Q9UHB4)
inactive: erlotinib 0.063 | [1] -0.011 | [2] 0.006 | [3] -0.078 | [4] -0.034 | [5] -0.017 | [6] -0.098 | [7] -0.01 | [8] 0.079 | IRAK-1-4 Inhibitor I 0.003 | ibrutinib 0.013 | [9] -0.014 | ralimetinib -0.023 | [10] -0.032 | [11] -0.018 | [12] 0.033 | [13] -0.062 | [14] 0 | [15] 0.052 | [16] -0.039

NDUFB5 (UniProt O43674)
inactive: erlotinib -0.021 | [1] -0.041 | [2] -0.065 | [3] 0.02 | [4] 0.014 | [5] -0.042 | [6] -0.017 | [7] 0.044 | [8] 0.007 | IRAK-1-4 Inhibitor I -0.013 | ibrutinib -0.016 | [9] 0.004 | ralimetinib 0.005 | [10] 0.014 | [11] -0.018 | [12] 0.015 | [13] -0.015 | [14] -0.021 | [15] 0.036 | [16] 0.002
